Measured values as given in PubChem BioAssay AID540256 (National Center for Advancing Translational Sciences (NCATS), 2011).
Out of some 300,000 compounds screened, about 3,700 (1.2%) were called active. The shares of active, inactive and inconclusive entries below differ from those in the screen. The call rests on the fitted dose curve; tested in HEK293 cells. Potencies beside an inconclusive call are fits to weak or partial responses and may not hold up.
Potency means the concentration at half of the fitted maximal effect.

Experiment: qHTS for Inhibitors of binding or entry into cells for Lassa Virus; further: nearly all actives have a fitted effect of over 50% in size
Conditions: Lassa virus pseudotype entry inhibition, cell reporter; series mostly up to 37.9 µM
With `CN(C)c1ccc(C(C(=O)NC2CCCC2)N(C(=O)c2csnn2)C2CC2)cc1` (configuration not stated) the Potency was inconclusive: 1.26 µM [inhibitor, single point].
With `CCOC(=O)N1CCc2c(sc3ncn(Cc4ccc(F)cc4)c(=O)c23)C1` the Potency was inconclusive: 25.1 µM [inhibitor, partial curve, poor fit].
With `COc1ccc(CC(=O)N(Cc2ccccc2)c2ccc(C)cc2)cc1OC` the Potency was inconclusive: 25.1 µM [inhibitor, single point].
For `O=C(CNC(=O)c1ccccc1)NCC(=O)OCC(=O)c1ccc(F)cc1`, the Potency was “inactive”.
With `CCN(C(=O)COC(=O)CNC(=O)c1sc2ccccc2c1Cl)C1CCCCC1` the Potency was inconclusive: 35.5 µM [inhibitor, single point].
With `O=C(Nc1ccccc1)N(Cc1cccs1)c1ccc(F)cc1` the Potency was “inactive”.
With `Cc1ccc(S(=O)(=O)N2CC(O)CC2C(=O)OCC(=O)c2ccccc2Cl)cc1C` (configuration not stated) the Potency was “inactive”.
With `N#Cc1ncc(N=Cc2ccc(N(CCCl)CCCl)cc2)s1` the Potency was active: 0.708 µM.
In the case of `O=C(CCS(=O)(=O)c1ccccc1)OCc1ccc([N+](=O)[O-])cc1`, the Potency is reported as inconclusive: 6.31 µM [activator, single point].
For `CCN(CC)S(=O)(=O)c1ccc(NC(=O)c2ccc(N3CCCC3=O)cc2)cc1`, the Potency was inconclusive: 2.51 µM [inhibitor, partial curve, poor fit].
With `Cc1ccccc1-n1ncc2c([N+](=O)[O-])cc([N+](=O)[O-])cc21` the Potency was inconclusive: 7.08 µM [inhibitor, full curve, poor fit].
With `Cc1ccc(NC(=S)N(Cc2cccs2)Cc2cc3cc(C)cc(C)c3[nH]c2=O)cc1` the Potency was inconclusive: 1.41 µM [inhibitor, partial curve, poor fit].
In the case of `CCCN(C(=O)c1cc2c(=O)oc3ccccc3c2s1)c1cccc(Cl)c1`, the Potency is reported as inconclusive: 11.2 µM [inhibitor, partial curve, poor fit].
In the case of `CCCn1c(SCCC(=O)O)nc2ccccc21`, the Potency is reported as “inactive”.
In the case of `COc1ccc(-c2cc3ccccc3oc2=O)cc1NC(=O)c1ccc(Br)o1`, the Potency is reported as “inactive”.
With `Cc1ccc(S(=O)(=O)N2CCCCC2)cc1NC(=O)c1cnccn1` the Potency was “inactive”.
With `Cc1nc(SCC(=O)Nc2ccc(CN3CCCC3)cc2)c2c(C)c(C)sc2n1` the Potency was inconclusive: 31.6 µM [inhibitor, single point].
For `CN(C(=O)C1CCC(CNS(=O)(=O)c2cccc3cccnc23)CC1)C1CCCCC1` (configuration not stated), the Potency was inconclusive: 11.2 µM [inhibitor, partial curve, poor fit].
In the case of `S=C1NCN(Cc2ccco2)CN1c1ccccc1`, the Potency is reported as inconclusive: 20 µM [activator, partial curve, poor fit].
For `O=C(Nc1ccc2c(c1)OCO2)c1cc(-c2ccncc2)nc2ccccc12`, the Potency was inconclusive: 14.1 µM [inhibitor, partial curve, poor fit].
For `C(=C\c1nc(-c2cccnc2)no1)/c1ccccc1`, the Potency was inconclusive: 10 µM [inhibitor, partial curve].
For `O=C(NC1CCCc2ccccc21)C(Cc1ccccc1)NS(=O)(=O)c1cccs1` (configuration not stated), the Potency was inconclusive: 14.6 µM [inhibitor, single point].
With `Cc1ccc(NC(=S)N2CCc3[nH]c4ccccc4c3C2)cc1` the Potency was inconclusive: 35.5 µM [inhibitor, single point].
In the case of `COc1ccc(NC(=O)Cn2c(=O)n(Cc3ccc4c(c3)OCO4)c(=O)c3ccc(C(=O)NC4CCCCC4)cc32)cc1`, the Potency is reported as “inactive”.
In the case of `c1ccc(-n2nnnc2Sc2ncnc3sc4c(c23)CCCC4)cc1`, the Potency is reported as inconclusive: 10 µM [inhibitor, partial curve, poor fit].
For `CN1CCN(C(=S)c2ccc(OCC(=O)Nc3cccc(C(F)(F)F)c3)cc2)CC1`, the Potency was inconclusive: 22.4 µM [inhibitor, single point].
For `C=CCNC(=O)c1cccc(C(F)(F)F)c1`, the Potency was inconclusive: 14.6 µM [activator, single point].
In the case of `COc1cc2c(C(=O)N3CCN(c4cccc(C(F)(F)F)c4)CC3)cn(CC(C)C)c(=O)c2cc1OC`, the Potency is reported as inconclusive: 35.5 µM [inhibitor, single point].
For `O=C(Nc1ccc2c(c1)N(S(=O)(=O)c1cccs1)CCC2)c1c(F)cccc1F`, the Potency was inconclusive: 35.5 µM [inhibitor, single point].
For `CC1(C2CC2)NC(=O)N(CC(=O)N2CCN(c3ccc(F)cc3)CC2)C1=O` (configuration not stated), the Potency was “inactive”.
With `Cc1ccc(C(=O)Nc2ccc(Cl)cn2)cc1` the Potency was inconclusive: 4.61 µM [inhibitor, full curve, poor fit].
With `COc1cc(C(=O)NNC(=O)c2cccc(Cl)c2)ccc1OCC(=O)N1CCOCC1` the Potency was “inactive”.
For `Nc1nc(SCC(=O)Nc2cc(Cl)c(Cl)cc2Cl)n[nH]1`, the Potency was inconclusive: 1.26 µM [inhibitor, single point].
In the case of `COc1ccc(Cl)cc1C(=O)NNC(=S)NC1CCCCC1`, the Potency is reported as “inactive”.
In the case of `COCCCn1c(-c2ccccc2Cl)n[nH]c1=S`, the Potency is reported as “inactive”.
With `CSCCC(NS(=O)(=O)c1ccc2c(c1)oc(=O)n2C)C(=O)Nc1ccc(Cl)cc1` (configuration not stated) the Potency was “inactive”.
In the case of `O=C(NC1(C(F)(F)F)C(=O)Nc2c1c(=O)[nH]c(=O)n2-c1ccccc1)c1ccccc1Cl` (configuration not stated), the Potency is reported as “inactive”.
In the case of `COc1cc(OC)cc(-c2cc3nc(C)c(CCC(=O)Nc4ccc(C(C)=O)cc4)c(C)n3n2)c1`, the Potency is reported as inconclusive: 14.1 µM [inhibitor, partial curve, poor fit].
With `Cc1ccc(SCC(=O)N2c3ccccc3Sc3ccccc32)cc1` the Potency was inconclusive: 35.5 µM [inhibitor, single point].
In the case of `COc1ccc2c(c1)C(=O)[C@@H](OC(=O)NS(=O)(=O)c1ccc(F)cc1)[C@H](c1ccc(OC)c(Br)c1)O2`, the Potency is reported as inconclusive: 2.99 µM [activator, single point].
For `COc1ccc(-c2csc(NC(=O)c3ccccc3NS(=O)(=O)c3ccc(C)cc3)n2)cc1`, the Potency was inconclusive: 10 µM [inhibitor, partial curve, poor fit].
In the case of `O=C1C=CC(=O)N1CCNc1ncc(C(F)(F)F)cc1Cl`, the Potency is reported as inconclusive: 35.5 µM [inhibitor, single point].
